The results in this text go back to publication PMC4022514, “The C-Terminal Domain from S. cerevisiae Pat1 Displays Two Conserved Regions Involved in Decapping Factor Recruitment” (PLoS ONE, 2014).

Sequences of proteins named here, by UniProt entry; tags and fusion partners are left off. A change or cut given only in a name is not applied to a line headed by its entry.
UniProt P25644: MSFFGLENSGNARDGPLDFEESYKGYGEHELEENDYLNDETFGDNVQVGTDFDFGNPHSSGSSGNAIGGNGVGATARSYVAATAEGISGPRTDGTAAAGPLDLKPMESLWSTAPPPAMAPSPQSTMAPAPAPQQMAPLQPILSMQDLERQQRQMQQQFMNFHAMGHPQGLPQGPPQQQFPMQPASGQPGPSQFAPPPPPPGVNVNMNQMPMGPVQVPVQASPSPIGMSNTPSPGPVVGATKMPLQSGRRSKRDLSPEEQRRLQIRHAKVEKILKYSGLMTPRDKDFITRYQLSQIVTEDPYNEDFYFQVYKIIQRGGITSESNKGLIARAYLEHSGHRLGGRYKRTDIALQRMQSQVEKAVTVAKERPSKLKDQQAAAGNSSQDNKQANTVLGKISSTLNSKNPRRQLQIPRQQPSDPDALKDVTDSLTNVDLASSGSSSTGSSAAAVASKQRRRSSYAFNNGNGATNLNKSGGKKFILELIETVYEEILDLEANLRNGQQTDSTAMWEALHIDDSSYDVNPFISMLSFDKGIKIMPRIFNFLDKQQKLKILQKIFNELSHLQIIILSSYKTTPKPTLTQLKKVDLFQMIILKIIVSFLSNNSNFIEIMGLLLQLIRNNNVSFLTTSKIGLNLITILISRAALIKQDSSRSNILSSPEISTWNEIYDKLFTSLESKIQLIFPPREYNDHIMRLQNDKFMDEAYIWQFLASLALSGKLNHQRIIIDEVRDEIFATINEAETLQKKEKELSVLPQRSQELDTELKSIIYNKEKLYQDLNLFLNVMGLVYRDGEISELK

In test [1] the target is T1, Edc3 (two-hybrid fusion to the DNA binding domain) (S. cerevisiae) (UniProt P39998).
T1 sequence: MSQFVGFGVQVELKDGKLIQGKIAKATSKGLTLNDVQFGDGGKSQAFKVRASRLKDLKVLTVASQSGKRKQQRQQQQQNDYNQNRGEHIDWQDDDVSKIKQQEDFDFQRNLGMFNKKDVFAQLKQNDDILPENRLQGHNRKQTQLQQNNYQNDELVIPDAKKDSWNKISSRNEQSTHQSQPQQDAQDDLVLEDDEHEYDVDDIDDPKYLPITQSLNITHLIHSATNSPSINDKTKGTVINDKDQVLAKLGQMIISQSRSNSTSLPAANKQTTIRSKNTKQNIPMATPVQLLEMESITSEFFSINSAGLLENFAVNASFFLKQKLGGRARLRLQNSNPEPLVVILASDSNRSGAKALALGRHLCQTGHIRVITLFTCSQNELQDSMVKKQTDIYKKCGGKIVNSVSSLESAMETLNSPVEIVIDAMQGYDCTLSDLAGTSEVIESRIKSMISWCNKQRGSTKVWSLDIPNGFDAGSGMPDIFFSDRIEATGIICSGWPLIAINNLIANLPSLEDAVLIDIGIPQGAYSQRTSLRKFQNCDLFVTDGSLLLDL
The experiment in a line: two-hybrid; yeast strain MAV203 (wild type for EDC3); β-galactosidase activity by Beta-Glo; Pat1 fused to Gal4AD.

Test [2] has as its target T2, Scd6 (two-hybrid fusion) (S. cerevisiae) (UniProt P45978).
T2 sequence: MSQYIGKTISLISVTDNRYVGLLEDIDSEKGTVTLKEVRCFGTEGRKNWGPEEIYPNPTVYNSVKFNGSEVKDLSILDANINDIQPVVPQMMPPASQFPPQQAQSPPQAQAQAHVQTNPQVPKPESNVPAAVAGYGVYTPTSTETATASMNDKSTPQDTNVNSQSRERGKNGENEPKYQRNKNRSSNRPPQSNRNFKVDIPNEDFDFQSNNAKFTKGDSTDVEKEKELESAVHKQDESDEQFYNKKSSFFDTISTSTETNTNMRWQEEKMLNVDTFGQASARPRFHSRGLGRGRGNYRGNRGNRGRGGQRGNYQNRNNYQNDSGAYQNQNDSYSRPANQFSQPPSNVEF
Described as above.

In test [3] the target is T1, Edc3 (two-hybrid fusion to the DNA binding domain) (S. cerevisiae). The experiment in a line: two-hybrid; yeast strain BSY2475, isogenic to MAV203 but lacking Edc3 (Δedc3); β-galactosidase activity by Beta-Glo; Pat1 fused to Gal4AD.
Test [4] deals with T2, Scd6 (two-hybrid fusion) (S. cerevisiae). The description is as above.

Results are given in words; binding and its absence hold for the method and conditions named. For some of these results: Binding can be weak; no strength is given. Where a sequence is shown, tags or fusion partners need not be part of it.

With “ScPat1ΔC68 (ScPat1 lacking residues 730 to 796; two-hybrid fusion to Gal4AD) (from UniProt P25644) (domain or fragment)”, the binding entry in test [1] was “no binding”; in test [2], “binds”; in test [3], “no binding”; in test [4] it was “binds”.
